In article doi:10.1101/2023.02.18.529070 (bioRxiv, 2023):
Results are given in words; binding and its absence hold for the method and conditions named. Binding seen in cells or lysates may run through a third protein. Some entries that bind do so weakly or less than the wild type.

By UniProt entry, the sequences of proteins in these tests, tags left out. Residues count along the entry.
UniProt P21860, residues 20-643: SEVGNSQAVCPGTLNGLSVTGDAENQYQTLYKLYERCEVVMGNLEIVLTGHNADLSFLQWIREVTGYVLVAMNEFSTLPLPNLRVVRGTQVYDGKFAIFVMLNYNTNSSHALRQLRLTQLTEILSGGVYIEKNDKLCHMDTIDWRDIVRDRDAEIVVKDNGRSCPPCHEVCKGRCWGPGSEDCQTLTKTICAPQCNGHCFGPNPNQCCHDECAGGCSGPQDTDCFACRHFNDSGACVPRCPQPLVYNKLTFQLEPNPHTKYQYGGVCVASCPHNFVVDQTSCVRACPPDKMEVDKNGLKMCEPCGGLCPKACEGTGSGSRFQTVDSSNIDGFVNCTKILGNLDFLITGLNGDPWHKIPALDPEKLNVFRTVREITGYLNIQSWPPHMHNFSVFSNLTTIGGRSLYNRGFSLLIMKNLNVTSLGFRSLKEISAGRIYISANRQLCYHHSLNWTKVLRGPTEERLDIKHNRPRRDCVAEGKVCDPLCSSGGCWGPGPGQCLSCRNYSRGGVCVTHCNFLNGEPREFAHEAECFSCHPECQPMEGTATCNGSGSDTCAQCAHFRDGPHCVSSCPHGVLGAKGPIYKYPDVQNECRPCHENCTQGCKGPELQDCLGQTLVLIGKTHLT

Biological target: recombinant human HER3 extracellular domain (human) (UniProt P21860)
Assay: pull-down

binding: binds
B1: recombinant human LRG1 (leucine-rich alpha-2-glycoprotein 1) (ligand, UniProt P02750 36-347, looked up)
chain: VTLSPKDCQVFRSDHGSSISCQPPAEIPGYLPADTVHLAVEFFNLTHLPANLLQGASKLQELHLSSNGLESLSPEFLRPVPQLRVLDLTRNALTGLPPGLFQASATLDTLVLKENQLEVLEVSWLHGLKALGHLDLSGNRLRKLPPGLLANFTLLRTLDLGENQLETLPPDLLRGPLQLERLHLEGNKLQVLGKDLLLPQPDLRYLFLNGNKLARVAAGAFQGLRQLDMLDLSNNSLASVPEGLWASLGQPNWDMRDGFDISGNPWICDQNLSDLYRWLQAQKDKMFSQNDTRCAGPEAVKGQTLLAVAKSQ
